Data on two compounds can be found in patent publication US8288552B2, “Dihydropyridone amidesas P2X7 modulators” (Roche Palo Alto LLC, priority 2008, dated 2012).

Chains of the proteins cited; added tags and fusions are not shown.
UniProt Q99572, whole entry: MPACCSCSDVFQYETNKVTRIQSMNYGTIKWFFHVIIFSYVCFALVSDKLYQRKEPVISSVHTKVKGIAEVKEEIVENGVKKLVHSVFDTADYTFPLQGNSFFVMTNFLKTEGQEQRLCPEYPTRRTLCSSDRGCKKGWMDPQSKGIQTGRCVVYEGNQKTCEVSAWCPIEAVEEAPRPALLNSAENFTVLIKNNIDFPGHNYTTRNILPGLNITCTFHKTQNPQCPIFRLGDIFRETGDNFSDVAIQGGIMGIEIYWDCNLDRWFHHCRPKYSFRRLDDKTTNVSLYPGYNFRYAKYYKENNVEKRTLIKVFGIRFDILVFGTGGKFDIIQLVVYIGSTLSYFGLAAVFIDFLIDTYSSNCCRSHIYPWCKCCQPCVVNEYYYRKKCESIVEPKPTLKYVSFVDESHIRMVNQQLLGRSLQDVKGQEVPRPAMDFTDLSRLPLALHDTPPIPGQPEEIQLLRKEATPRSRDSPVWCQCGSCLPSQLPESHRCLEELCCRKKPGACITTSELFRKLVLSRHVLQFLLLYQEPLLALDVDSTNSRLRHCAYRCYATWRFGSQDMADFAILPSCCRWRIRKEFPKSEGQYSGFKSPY

The match of structure and compound is tentative.

Broadly, the pKi is −log10 of the Ki, conventionally taken in molar units. Low readings indicate a high Ki, high ones a low Ki.

This experiment addresses P2X7 (UniProt Q99572). Nature of the experiment: P2X7 pKi of Table 1.

As for `COc1cc(C)c(NC(=O)C2=CNC(=O)C[C@@H]2c2cccc(F)c2)cc1OC`, the negative logarithm of the Ki (pKi) stood at 6.803.

Turning to `Cc1ccccc1CNC(=O)C1=CNC(=O)C[C@H]1c1ccc(F)cc1`, the pKi is recorded as 5.975.
